The record followed here is the supplement of paper PMC10849652.

Sequences of proteins named here, by UniProt entry; tags and fusion partners are left off. A change or cut given only in a name is not applied to a line headed by its entry.
UniProt P15428: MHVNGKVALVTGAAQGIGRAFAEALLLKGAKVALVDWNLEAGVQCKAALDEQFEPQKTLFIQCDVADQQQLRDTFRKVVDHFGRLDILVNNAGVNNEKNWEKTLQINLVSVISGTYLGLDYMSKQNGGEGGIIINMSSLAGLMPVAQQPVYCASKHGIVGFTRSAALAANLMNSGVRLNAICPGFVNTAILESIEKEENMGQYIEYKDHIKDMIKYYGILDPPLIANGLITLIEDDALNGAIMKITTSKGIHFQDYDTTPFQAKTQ
UniProt Q9BW72: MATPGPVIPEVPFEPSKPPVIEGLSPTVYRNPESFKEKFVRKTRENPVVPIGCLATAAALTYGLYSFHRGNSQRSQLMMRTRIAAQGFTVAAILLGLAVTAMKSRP
UniProt Q96ED9: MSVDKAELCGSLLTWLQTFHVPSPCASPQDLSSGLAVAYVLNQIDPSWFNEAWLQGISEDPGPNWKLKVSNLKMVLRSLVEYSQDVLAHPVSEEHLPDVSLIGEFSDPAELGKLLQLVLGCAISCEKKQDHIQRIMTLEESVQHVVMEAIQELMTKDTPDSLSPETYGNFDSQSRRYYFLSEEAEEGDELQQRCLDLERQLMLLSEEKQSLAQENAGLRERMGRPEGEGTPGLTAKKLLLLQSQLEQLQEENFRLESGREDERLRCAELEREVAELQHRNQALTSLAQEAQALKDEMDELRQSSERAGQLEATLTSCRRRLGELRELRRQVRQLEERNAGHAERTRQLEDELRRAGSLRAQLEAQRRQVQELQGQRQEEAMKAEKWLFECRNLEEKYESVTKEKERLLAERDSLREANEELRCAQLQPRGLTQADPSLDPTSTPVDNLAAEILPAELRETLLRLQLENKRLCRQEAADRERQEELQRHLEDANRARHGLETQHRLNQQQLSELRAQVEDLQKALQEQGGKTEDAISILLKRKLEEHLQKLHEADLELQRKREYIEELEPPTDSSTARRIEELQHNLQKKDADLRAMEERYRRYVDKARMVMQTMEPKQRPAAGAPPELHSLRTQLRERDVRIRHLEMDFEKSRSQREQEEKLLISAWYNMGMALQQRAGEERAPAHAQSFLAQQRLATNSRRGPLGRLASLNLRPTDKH
UniProt P50135: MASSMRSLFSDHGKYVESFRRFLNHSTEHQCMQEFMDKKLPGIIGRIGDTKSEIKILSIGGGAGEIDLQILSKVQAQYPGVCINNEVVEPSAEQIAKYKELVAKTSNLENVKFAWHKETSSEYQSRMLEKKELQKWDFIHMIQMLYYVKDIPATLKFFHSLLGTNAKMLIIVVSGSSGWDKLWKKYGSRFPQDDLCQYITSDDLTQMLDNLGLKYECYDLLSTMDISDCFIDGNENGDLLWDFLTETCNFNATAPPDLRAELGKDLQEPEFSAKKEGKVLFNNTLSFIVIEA
UniProt Q15011: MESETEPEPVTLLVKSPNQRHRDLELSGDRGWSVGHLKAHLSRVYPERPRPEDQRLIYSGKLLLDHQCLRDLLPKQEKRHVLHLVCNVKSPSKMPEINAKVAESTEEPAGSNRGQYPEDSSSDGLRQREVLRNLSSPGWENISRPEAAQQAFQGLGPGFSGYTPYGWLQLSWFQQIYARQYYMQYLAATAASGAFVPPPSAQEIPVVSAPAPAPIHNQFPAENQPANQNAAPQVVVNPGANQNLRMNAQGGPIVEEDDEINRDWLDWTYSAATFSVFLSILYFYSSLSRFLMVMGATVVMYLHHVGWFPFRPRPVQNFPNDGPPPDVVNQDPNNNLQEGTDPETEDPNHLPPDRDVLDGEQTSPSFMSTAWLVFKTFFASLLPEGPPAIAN
UniProt Q8NCD3, whole entry, looked up: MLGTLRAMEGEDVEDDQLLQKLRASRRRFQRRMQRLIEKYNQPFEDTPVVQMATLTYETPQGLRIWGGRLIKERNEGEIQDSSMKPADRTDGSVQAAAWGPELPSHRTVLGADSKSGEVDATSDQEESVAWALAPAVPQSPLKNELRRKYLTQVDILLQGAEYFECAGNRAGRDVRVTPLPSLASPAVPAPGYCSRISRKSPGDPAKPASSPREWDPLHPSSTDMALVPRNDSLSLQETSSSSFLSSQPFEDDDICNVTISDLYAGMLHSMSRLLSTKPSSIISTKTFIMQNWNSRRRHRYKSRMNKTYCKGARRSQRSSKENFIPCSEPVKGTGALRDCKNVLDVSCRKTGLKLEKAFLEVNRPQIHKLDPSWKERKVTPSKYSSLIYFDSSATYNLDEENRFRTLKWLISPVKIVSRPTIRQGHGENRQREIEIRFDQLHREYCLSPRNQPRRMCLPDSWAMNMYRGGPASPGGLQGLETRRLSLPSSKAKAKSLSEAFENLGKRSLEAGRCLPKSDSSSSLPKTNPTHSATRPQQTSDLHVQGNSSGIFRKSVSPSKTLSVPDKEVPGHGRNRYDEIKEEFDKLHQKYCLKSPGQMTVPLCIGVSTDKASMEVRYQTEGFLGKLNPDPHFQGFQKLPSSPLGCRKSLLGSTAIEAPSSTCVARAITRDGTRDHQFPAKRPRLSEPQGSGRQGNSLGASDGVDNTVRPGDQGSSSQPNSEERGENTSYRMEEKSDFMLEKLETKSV
UniProt Q9P2P5: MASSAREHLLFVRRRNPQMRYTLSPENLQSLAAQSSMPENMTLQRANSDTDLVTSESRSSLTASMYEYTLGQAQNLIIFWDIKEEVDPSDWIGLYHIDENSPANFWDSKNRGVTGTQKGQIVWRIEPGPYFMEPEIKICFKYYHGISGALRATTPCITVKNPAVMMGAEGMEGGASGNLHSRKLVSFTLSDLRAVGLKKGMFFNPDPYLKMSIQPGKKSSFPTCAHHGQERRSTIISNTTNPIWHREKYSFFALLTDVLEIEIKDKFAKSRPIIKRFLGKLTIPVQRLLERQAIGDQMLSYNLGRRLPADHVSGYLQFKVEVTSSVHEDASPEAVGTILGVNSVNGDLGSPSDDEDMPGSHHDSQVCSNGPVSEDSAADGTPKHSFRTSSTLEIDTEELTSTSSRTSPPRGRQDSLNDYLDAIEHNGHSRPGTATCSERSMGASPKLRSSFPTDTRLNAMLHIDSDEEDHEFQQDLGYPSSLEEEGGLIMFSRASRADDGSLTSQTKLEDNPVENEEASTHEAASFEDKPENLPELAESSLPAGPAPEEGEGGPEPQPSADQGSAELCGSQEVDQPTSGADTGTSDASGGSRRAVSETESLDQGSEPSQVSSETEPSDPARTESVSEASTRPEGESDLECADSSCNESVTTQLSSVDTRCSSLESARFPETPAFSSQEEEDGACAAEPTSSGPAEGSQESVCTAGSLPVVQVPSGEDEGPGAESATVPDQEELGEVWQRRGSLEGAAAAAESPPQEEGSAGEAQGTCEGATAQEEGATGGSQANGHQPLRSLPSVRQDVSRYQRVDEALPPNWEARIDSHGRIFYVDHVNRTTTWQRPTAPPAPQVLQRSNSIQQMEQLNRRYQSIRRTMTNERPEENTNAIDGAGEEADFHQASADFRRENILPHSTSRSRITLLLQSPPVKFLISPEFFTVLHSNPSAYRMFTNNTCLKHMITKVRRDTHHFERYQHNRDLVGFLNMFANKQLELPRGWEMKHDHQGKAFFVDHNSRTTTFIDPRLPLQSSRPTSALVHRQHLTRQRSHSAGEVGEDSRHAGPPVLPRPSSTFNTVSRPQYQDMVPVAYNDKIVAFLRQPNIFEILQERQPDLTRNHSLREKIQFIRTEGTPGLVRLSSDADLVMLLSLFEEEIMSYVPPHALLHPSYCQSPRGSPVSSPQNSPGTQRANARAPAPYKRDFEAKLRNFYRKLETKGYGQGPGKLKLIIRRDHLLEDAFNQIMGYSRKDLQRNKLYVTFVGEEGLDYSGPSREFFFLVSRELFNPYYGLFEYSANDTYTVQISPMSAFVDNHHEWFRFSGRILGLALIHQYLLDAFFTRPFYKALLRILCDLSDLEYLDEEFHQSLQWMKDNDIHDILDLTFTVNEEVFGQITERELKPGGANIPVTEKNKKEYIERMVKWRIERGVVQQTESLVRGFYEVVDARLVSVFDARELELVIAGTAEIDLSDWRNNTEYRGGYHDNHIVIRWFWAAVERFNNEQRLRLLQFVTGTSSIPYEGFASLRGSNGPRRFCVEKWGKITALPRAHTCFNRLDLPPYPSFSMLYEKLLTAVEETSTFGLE
UniProt Q15034: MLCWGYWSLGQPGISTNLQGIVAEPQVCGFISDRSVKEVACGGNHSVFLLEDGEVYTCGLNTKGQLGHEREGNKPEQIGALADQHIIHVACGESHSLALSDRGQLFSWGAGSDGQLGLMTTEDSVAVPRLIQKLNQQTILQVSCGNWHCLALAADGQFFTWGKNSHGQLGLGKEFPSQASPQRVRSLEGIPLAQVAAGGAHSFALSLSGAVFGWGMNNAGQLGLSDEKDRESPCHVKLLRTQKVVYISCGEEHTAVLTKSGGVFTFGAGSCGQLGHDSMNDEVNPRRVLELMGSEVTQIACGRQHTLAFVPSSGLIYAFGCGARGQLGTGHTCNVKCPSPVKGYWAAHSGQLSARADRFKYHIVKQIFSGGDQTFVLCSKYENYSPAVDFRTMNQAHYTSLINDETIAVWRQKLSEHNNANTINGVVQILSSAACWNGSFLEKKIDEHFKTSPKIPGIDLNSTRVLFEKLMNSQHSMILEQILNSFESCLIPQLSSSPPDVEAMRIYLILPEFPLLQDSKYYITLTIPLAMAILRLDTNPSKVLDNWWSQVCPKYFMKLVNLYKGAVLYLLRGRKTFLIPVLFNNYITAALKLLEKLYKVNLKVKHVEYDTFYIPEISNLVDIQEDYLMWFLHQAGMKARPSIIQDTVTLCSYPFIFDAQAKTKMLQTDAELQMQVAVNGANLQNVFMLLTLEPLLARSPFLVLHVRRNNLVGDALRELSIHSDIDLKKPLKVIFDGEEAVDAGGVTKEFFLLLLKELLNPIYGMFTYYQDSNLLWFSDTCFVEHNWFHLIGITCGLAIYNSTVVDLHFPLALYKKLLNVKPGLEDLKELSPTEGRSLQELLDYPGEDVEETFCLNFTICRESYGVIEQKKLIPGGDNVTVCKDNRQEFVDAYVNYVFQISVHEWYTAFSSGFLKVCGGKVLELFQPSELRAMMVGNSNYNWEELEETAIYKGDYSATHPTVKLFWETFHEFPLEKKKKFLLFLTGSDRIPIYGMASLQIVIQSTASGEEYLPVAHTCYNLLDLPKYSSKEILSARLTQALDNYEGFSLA
UniProt Q96MH2: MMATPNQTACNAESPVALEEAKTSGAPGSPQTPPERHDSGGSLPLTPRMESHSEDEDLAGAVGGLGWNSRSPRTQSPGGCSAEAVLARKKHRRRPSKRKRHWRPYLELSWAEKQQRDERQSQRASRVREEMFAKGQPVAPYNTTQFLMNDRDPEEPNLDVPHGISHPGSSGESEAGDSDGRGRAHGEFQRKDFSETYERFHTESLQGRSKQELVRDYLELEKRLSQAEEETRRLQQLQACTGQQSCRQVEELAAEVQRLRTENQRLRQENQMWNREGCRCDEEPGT
UniProt Q9UGU5: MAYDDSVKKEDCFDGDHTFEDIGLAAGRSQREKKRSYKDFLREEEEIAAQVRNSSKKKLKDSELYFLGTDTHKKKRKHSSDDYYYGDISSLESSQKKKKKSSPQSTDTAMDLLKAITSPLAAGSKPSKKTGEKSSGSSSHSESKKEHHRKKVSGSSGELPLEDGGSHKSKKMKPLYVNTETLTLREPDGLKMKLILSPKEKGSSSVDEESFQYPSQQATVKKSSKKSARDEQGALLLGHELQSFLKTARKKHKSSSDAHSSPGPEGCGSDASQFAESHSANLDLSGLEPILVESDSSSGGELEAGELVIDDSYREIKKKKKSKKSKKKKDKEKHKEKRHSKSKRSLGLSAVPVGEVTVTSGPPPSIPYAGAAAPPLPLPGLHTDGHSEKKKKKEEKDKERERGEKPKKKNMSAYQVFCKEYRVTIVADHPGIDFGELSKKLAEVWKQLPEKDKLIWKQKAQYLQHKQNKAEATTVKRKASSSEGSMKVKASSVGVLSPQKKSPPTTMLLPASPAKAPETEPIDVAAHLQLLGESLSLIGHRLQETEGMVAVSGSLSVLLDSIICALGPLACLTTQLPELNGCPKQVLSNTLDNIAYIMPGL
UniProt P13747, whole entry, looked up: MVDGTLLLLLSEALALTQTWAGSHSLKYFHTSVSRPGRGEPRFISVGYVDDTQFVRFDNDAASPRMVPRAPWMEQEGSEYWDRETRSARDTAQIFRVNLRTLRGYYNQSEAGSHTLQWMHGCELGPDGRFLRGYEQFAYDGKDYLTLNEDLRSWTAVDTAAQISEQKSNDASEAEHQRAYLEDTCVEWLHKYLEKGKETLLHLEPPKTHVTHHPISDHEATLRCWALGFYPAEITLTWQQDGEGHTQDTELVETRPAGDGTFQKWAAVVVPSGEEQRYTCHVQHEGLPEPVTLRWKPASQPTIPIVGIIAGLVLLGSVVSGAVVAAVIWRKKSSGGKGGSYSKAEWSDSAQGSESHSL

Some of the results follow.

Compound in one assay: CN1CC[C@H](c2c(O)cc(O)c3c(=O)cc(-c4ccccc4Cl)oc23)[C@H](O)C1 [alvocidib]
The assay can be described thus: log2 fold change, soluble protein after heating vs DMSO (PISA); higher = thermal stabilisation; K562 lysate, 10 uM; active = over 0.2 and 3.5 SD of the protein, either way, in both replicates (recomputed). Summed up:
(§1)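 K562 pellets were dounce-homogenised in PBS pH 7.4 containing 1 mM MgCl2, and the crude extract, at 1 mg/mL protein, was exposed to 10 μM compound for 30 min. Aliquots were heated for 3 min across 48°C-58°C, pooled, brought to 0.5% NP-40 at 4°C and spun at 21,000xg for 90 min, with the supernatant taken as soluble protein. TMTpro 16plex LC-MS/MS with equalised channel sums quantified that protein. Values are log-two fold changes in thermal stability relative to solvent controls, taken from duplicates.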
With HPGD (UniProt P15428), the log2 fold change was inactive: -0.09.
The same measure, in the same setting: the figure for HOMER3 (UniProt Q9NSC5) is inactive: -0.066; for HIGD2A (UniProt Q9BW72) it is inactive: 0.102; for HGFAC (UniProt Q04756) it is inactive: -0.119.
Turning to HOOK2 (UniProt Q96ED9), the log2 fold change is inactive: 0.175.
As for HPS6 (UniProt Q86YV9), the log2 fold change was inactive: -0.164.
Same read-out and setting: the figure for HNMT (UniProt P50135) is inactive: -0.013.
On to HERPUD1 (UniProt Q15011), for which the log2 fold change was inactive: -0.068.

Compound in the next assay: CN1CCc2c(c3ccccc3n2Cc2ccc(C(=O)NO)cc2)C1 [Tubastatin A]
Described as above. Summed up:
as §1
With HELLS (UniProt Q9NRZ9), the log2 fold change was inactive: -0.149.
For the target HJURP (UniProt Q8NCD3), the log2 fold change is inactive: -0.052.
Turning to HECW2 (UniProt Q9P2P5), the log2 fold change is inactive: -0.002.
Still for that read-out and setting: the figure for HPS4 isoform 4 (UniProt Q9NQG7) is inactive: -0.005.
Take HERC3 (UniProt Q15034): the log2 fold change was inactive: -0.169.
Turning to HEXIM2 (UniProt Q96MH2), the log2 fold change was inactive: 0.108.
In the case of HRAS (UniProt P01112), the log2 fold change was inactive: 0.156.

Compound in another assay: CNC(=O)C1=CC=CC=C1NC2=NC(=NC=C2Cl)NC3=C(C=C(C=C3)N4CCOCC4)OC
The assay is described as above. An outline of the steps:
as §1
With HMGXB4 (UniProt Q9UGU5), the log2 fold change was inactive: 0.05.
For the target HS6ST1 (UniProt O60243), the log2 fold change is inactive: -0.05.
As for HLA-E (UniProt P13747), the log2 fold change is inactive: 0.123.
In the case of HELLS (UniProt Q9NRZ9), the log2 fold change is inactive: 0.005.
Turning to HP1BP3 isoform 5 (UniProt Q5SSJ5), the log2 fold change is inactive: 0.099.
Regarding HJURP (UniProt Q8NCD3), the log2 fold change was inactive: 0.074.
Same read-out and setting: the figure for HOOK2 (UniProt Q96ED9) is inactive: 0.145.
For the target HECW2 (UniProt Q9P2P5), the log2 fold change was inactive: 0.102.
Regarding HNMT (UniProt P50135), the log2 fold change was inactive: -0.009.
With HPS4 isoform 4 (UniProt Q9NQG7), the log2 fold change was inactive: -0.045.
Still for that read-out and setting: the figure for HEXIM2 (UniProt Q96MH2) is inactive: 0.
Regarding HRAS (UniProt P01112), the log2 fold change is inactive: 0.056.
For the target HELZ2 (UniProt Q9BYK8), the log2 fold change was inactive: -0.221.
Consider HMX3 (UniProt A6NHT5), for which the log2 fold change was inactive: 0.035.

Compound in a further assay: CNC(=O)c1ccc(Nc2ncc(C(F)(F)F)c(NCc3nccnc3N(C)S(C)(=O)=O)n2)cc1 [defactinib]
The assay is described as above. Summed up:
as §1
Turning to HMGXB4 (UniProt Q9UGU5), the log2 fold change is inactive: -0.009.
In the case of HJURP (UniProt Q8NCD3), the log2 fold change is inactive: -0.018.
The same measure, in the same setting: as for HECW2 (UniProt Q9P2P5), the figure is inactive: -0.087; as for HPS4 isoform 4 (UniProt Q9NQG7), inactive: 0.074.
Still for that read-out and setting: the figure for HNRNPM (UniProt M0QZM1) is inactive: 0.073; for HNRNPM (UniProt M0R019) it is inactive: -0.112; for HELZ2 (UniProt Q9BYK8) it is inactive: 0.064.
The same measure, in the same setting: the figure for HERPUD1 (UniProt Q15011) is inactive: -0.07.

Compound in the next assay: CNc1nc(-c2ccc3c(N)n[nH]c3c2)cc(N2C[C@@H](C(=O)NC3CCCCC3)CC[C@H]2C)n1
Described as above. An outline of the steps: as §1
On to HPGD (UniProt P15428), for which the log2 fold change was inactive: 0.196.
HELLS (UniProt Q9NRZ9): the log2 fold change is inactive: 0.019.
On to HIGD2A (UniProt Q9BW72), for which the log2 fold change was inactive: 0.097.
For the target HJURP (UniProt Q8NCD3), the log2 fold change is inactive: 0.029.
For HOOK2 (UniProt Q96ED9), the log2 fold change is inactive: 0.268.
Regarding HPS6 (UniProt Q86YV9), the log2 fold change was inactive: 0.238.
For the target HECW2 (UniProt Q9P2P5), the log2 fold change is inactive: -0.099.
As to HNMT (UniProt P50135), the log2 fold change was inactive: 0.033.
As to HPS4 isoform 4 (UniProt Q9NQG7), the log2 fold change was inactive: 0.198.
Turning to HNRNPM (UniProt M0QZM1), the log2 fold change was inactive: 0.128.
As to HERC3 (UniProt Q15034), the log2 fold change was inactive: -0.115.
For the target HEXIM2 (UniProt Q96MH2), the log2 fold change was inactive: 0.004.
Turning to HNRNPU isoform 2 (UniProt Q00839), the log2 fold change is inactive: -0.035.
Same read-out and setting: as for HRAS (UniProt P01112), the figure is inactive: 0.084; as for HNRNPC isoform 2 (UniProt P07910), inactive: 0.098.

Compound in another assay: COC(=O)N[C@@H](C)CNc1nccc(-c2cn(C(C)C)nc2-c2cc(Cl)cc(NS(C)(=O)=O)c2F)n1 [encorafenib]
Described as above. Summed up: as §1
As to HPGD (UniProt P15428), the log2 fold change is inactive: -0.013.
In the case of HMGXB4 (UniProt Q9UGU5), the log2 fold change is inactive: -0.292.
As for HLA-E (UniProt P13747), the log2 fold change is inactive: -0.049.
Regarding HELLS (UniProt Q9NRZ9), the log2 fold change is inactive: -0.07.
Take HMGN5 (UniProt Q5JSK9): the log2 fold change was inactive: 0.055.
As for HPS6 (UniProt Q86YV9), the log2 fold change was inactive: 0.036.
For HSP90AA2P (UniProt Q14568), the log2 fold change is inactive: 0.044.
Same read-out and setting: as for HLA-DRA, the figure is inactive: 0.074; as for HECW2 (UniProt Q9P2P5), inactive: 0.
Consider HNMT (UniProt P50135), for which the log2 fold change was inactive: 0.073.
As for HPS4 isoform 4 (UniProt Q9NQG7), the log2 fold change was inactive: -0.042.
HNRNPM (UniProt M0QZM1): the log2 fold change is inactive: 0.006.
Turning to HERC3 (UniProt Q15034), the log2 fold change is inactive: 0.015.
With HMGCR isoform 3 (UniProt P04035), the log2 fold change is inactive: 0.221.
On the same count and under the same terms, as for HRAS (UniProt P01112), the figure is inactive: 0.007; as for HERPUD1 (UniProt Q15011), inactive: -0.077.
As for HMGXB3 (UniProt Q12766), the log2 fold change was inactive: -0.029.

Compound in another assay: COC(=O)[C@H](CCSC)NC(=O)C1=C(C=C(C=C1)NC[C@H](CS)N)C2=CC=CC=C2
The description is as above. An outline of the steps:
as §1
As for HPGD (UniProt P15428), the log2 fold change was inactive: 0.169.
In the case of HMGXB4 (UniProt Q9UGU5), the log2 fold change is inactive: 0.018.
With HLA-E (UniProt P13747), the log2 fold change is inactive: -0.012.
Regarding HELLS (UniProt Q9NRZ9), the log2 fold change was inactive: -0.045.
Take HMGN5 (UniProt Q5JSK9): the log2 fold change was inactive: -0.111.
Regarding HPS6 (UniProt Q86YV9), the log2 fold change is inactive: 0.057.
As for HSP90AA2P (UniProt Q14568), the log2 fold change is inactive: -0.07.
The same measure, in the same setting: the figure for HLA-DRA is inactive: 0.001.
Take HECW2 (UniProt Q9P2P5): the log2 fold change was inactive: 0.153.
Turning to HNMT (UniProt P50135), the log2 fold change is inactive: -0.072.
Take HPS4 isoform 4 (UniProt Q9NQG7): the log2 fold change was inactive: 0.033.
Take HNRNPM (UniProt M0QZM1): the log2 fold change is inactive: -0.025.
With HERC3 (UniProt Q15034), the log2 fold change was inactive: -0.007.
Regarding HMGCR isoform 3 (UniProt P04035), the log2 fold change was inactive: -0.058.
Consider HRAS (UniProt P01112), for which the log2 fold change is inactive: -0.111.
On the same count and under the same terms, as for HERPUD1 (UniProt Q15011), the figure is inactive: 0.01; as for HMGXB3 (UniProt Q12766), inactive: 0.
